This note sets out measurements from article doi:10.1101/606285.

The chains behind the UniProt entries cited, without tags or fusion partners.
UniProt Q5IBC5: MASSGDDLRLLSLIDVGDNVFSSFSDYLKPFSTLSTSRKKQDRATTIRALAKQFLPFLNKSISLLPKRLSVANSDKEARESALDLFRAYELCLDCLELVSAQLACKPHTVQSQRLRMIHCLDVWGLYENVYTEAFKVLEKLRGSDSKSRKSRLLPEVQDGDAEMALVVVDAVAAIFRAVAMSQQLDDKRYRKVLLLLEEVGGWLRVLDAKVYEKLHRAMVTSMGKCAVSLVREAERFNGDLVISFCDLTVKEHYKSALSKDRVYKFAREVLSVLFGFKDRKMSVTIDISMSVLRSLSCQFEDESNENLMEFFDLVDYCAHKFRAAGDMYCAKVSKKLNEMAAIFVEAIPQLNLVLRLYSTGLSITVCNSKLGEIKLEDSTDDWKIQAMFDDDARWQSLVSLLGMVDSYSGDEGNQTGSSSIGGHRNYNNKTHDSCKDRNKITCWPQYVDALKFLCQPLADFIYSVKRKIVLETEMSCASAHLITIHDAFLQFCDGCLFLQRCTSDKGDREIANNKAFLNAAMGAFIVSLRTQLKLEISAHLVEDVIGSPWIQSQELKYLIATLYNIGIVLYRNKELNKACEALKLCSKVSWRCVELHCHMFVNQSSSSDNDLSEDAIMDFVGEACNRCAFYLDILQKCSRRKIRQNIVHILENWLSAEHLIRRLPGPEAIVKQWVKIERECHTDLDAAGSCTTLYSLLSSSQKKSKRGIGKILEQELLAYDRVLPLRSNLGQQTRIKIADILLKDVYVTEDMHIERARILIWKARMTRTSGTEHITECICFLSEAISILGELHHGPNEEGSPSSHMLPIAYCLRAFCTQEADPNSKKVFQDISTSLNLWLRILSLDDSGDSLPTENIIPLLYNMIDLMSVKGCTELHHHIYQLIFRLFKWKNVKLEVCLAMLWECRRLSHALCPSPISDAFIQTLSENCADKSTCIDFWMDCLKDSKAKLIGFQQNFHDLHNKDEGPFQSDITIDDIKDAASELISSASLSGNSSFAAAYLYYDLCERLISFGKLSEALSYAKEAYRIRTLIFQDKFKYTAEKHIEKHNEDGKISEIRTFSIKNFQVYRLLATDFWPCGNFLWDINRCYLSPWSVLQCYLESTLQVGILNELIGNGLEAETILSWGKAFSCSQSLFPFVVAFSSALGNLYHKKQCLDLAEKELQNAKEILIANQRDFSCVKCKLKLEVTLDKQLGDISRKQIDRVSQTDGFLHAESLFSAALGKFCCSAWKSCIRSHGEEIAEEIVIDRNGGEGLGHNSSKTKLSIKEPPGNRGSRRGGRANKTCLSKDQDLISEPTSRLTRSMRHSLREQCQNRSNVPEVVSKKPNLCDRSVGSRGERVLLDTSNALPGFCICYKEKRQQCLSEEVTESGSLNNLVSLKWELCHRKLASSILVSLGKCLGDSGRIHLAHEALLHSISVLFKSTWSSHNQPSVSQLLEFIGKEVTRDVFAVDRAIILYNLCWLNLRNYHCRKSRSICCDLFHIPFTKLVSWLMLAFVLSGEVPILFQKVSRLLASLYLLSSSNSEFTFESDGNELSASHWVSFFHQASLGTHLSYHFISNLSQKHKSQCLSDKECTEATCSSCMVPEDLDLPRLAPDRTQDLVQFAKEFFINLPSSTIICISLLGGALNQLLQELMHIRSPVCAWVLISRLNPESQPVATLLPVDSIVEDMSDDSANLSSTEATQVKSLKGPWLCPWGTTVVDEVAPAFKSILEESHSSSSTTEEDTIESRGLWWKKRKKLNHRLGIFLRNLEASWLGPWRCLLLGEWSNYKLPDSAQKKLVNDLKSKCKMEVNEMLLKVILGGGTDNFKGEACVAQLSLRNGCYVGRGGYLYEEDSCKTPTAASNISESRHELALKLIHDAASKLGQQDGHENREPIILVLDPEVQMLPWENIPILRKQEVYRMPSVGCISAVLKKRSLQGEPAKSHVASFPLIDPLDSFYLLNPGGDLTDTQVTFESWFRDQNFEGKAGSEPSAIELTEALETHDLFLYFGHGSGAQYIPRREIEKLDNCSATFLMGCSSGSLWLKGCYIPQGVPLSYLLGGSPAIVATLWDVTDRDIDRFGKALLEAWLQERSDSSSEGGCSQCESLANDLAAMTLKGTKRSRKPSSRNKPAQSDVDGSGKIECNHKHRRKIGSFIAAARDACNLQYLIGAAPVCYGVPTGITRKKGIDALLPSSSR

These are yes or no findings as the source states them, for the method shown. For some of these results: Binding seen in cells or lysates may run through a third protein. Some entries that bind do so weakly or less than the wild type. Tags and fused reporters may be left off the sequences shown.

The target in assay [1] is SEPARASE (ESP), fused with the binding domain (BD) (Arabidopsis thaliana) (UniProt Q5IBC5). Put plainly: two-hybrid.
Assay [2] addresses SEPARASE (ESP), split-YFP fusion for BiFC (Arabidopsis thaliana) (UniProt Q5IBC5). The assay is described as follows: split reporter.

B1: PATRONUS1 (PANS1), fused with the activating domain (AD) (protein, UniProt Q9LJG6 1-193)
chain: MANMNALQQMIFPDENAPIHRKKSVTAASVKSKGTVLGQKKPGGARKALNDITNKSGIHAKAAASSKNKQIASAAVKEIDIAGERFLHDHSKCIKEQQNLWDDHYSADLMLLHHGSSIKEKHLNWDIEKMDAKDDLTYEEPEEMASPKFSDWLKNSTPWRSPIRHGSMMPSTPLAWRFDSCEFTLKEDSDDLF
As to B1, the binding entry in assay [1] is “binds”.

B2: PATRONUS1 (PANS1), split-YFP fusion for BiFC (protein, UniProt Q9LJG6 1-193)
chain: B1 chain
With B2, the binding entry in assay [2] is given as “binds”.

B3: PATRONUS2 (PANS2), split-YFP fusion for BiFC (protein, UniProt Q94CK6 1-194)
chain: MANTILRGQMIFQDENALAALGKKAVAAGKGKSSLAAPKKNGAGFGSRKALHDITNKSKLQPQASSTTRKDVEGVDFDIAKEGFLHDHSKCIEEQQQDQWDSYFSEHIILHGHETNIKEGVPQYNNIQEIDAENSWDELKEIPMEEFSDLLECSTQWRSPPDSLSHHHSSLPSSPLPWHFETVEFKLKEDEDTT
For the molecule B3, the binding entry in assay [2] is “binds”.

B4: PATRONUS2 (PANS2), fused with the activating domain (AD) (protein, UniProt Q94CK6 1-194)
chain: B3 chain
For the molecule B4, in assay [1], the binding result is on record as “binds”.
